According to PMC10985002:
No constants are given. Whether binding was seen depends on the method and setting. In cells and extracts the contact can be indirect.

Assays:
[1] = target: AIP4 (endogenous, 786-O cells) (human (endogenous in 786-O)), Q96J02; assay: co-IP; endogenous proteins in 786-O cell lysates; immunoprecipitation with anti-TRIB3 or anti-PLIN2, immunoblot; PLIN2 with TEB4 also in cells in which TRIB3 was or was not silenced (shRNA); details: remark: other sources report otherwise
[2] = target: T1, UBR1 (endogenous, 786-O cells) (human (endogenous in 786-O)), Q8IWV7; assay: as above; details: remark: other sources report otherwise
T1 chain: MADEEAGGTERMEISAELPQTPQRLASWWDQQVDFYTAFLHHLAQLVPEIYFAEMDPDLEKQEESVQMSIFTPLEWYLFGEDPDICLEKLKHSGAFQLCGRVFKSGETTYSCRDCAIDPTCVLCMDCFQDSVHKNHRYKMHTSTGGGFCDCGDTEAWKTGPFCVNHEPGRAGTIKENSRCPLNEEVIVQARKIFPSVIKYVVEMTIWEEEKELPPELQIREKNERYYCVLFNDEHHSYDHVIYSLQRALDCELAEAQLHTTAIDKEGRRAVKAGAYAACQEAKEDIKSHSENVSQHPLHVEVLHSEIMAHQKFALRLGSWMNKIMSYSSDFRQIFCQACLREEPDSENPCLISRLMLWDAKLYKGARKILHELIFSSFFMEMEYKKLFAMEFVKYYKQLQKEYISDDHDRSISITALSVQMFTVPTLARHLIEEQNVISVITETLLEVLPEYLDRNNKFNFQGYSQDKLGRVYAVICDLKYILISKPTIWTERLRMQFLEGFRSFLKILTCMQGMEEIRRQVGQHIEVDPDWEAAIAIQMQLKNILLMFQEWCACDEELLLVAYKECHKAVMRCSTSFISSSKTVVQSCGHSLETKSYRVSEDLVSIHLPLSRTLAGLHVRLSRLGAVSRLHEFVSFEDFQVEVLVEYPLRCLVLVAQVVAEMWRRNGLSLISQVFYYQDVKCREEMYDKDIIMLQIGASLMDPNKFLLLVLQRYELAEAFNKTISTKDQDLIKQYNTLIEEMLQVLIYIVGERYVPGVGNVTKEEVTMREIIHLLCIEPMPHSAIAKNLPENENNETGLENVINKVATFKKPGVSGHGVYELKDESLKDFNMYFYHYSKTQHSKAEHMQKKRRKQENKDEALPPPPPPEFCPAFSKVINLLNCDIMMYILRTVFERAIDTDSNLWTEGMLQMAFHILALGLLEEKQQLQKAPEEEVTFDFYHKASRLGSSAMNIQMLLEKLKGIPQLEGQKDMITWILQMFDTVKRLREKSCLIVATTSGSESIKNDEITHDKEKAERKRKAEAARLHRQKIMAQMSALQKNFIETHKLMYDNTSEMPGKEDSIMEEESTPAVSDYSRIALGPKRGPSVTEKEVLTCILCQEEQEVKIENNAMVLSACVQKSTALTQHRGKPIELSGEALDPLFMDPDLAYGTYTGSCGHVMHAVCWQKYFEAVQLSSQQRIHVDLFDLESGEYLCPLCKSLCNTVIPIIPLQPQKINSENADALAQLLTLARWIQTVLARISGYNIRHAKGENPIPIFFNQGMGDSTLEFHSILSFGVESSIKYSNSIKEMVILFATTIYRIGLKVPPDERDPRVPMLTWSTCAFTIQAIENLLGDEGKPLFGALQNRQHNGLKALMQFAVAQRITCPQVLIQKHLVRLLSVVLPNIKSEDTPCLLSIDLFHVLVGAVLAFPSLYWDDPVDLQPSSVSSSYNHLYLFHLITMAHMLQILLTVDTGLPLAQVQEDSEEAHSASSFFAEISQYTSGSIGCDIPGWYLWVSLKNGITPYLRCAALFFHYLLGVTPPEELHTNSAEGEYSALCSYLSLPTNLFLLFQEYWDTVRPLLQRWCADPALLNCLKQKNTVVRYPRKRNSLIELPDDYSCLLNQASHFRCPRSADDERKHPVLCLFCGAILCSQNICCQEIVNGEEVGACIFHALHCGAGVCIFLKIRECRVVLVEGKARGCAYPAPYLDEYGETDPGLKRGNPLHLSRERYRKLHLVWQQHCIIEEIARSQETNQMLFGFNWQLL

binding [1]: no binding
binding [2]: no binding
B1: PLIN2 (endogenous, 786-O cells), Q99541 1-437 (protein)
chain: MASVAVDPQPSVVTRVVNLPLVSSTYDLMSSAYLSTKDQYPYLKSVCEMAENGVKTITSVAMTSALPIIQKLEPQIAVANTYACKGLDRIEERLPILNQPSTQIVANAKGAVTGAKDAVTTTVTGAKDSVASTITGVMDKTKGAVTGSVEKTKSVVSGSINTVLGSRMMQLVSSGVENALTKSELLVEQYLPLTEEELEKEAKKVEGFDLVQKPSYYVRLGSLSTKLHSRAYQQALSRVKEAKQKSQQTISQLHSTVHLIEFARKNVYSANQKIQDAQDKLYLSWVEWKRSIGYDDTDESHCAEHIESRTLAIARNLTQQLQTTCHTLLSNIQGVPQNIQDQAKHMGVMAGDIYSVFRNAASFKEVSDSLLTSSKGQLQKMKESLDDVMDYLVNNTPLNWLVGPFYPQLTESQNAQDQGAEMDKSSQETQRSEHKTH
